Reference: publication doi:10.1101/2024.07.24.604958 (bioRxiv, 2024)
Results are given in words; binding and its absence hold for the method and conditions named. Binding seen in cells or lysates may run through a third protein. A result given as binding can be weak or reduced; the word gives no strength.

The chains behind the UniProt entries cited, without tags or fusion partners. Where a name states a change or a piece, a line headed by the entry shows the natural chain unless it says otherwise.
UniProt Q8R4P5: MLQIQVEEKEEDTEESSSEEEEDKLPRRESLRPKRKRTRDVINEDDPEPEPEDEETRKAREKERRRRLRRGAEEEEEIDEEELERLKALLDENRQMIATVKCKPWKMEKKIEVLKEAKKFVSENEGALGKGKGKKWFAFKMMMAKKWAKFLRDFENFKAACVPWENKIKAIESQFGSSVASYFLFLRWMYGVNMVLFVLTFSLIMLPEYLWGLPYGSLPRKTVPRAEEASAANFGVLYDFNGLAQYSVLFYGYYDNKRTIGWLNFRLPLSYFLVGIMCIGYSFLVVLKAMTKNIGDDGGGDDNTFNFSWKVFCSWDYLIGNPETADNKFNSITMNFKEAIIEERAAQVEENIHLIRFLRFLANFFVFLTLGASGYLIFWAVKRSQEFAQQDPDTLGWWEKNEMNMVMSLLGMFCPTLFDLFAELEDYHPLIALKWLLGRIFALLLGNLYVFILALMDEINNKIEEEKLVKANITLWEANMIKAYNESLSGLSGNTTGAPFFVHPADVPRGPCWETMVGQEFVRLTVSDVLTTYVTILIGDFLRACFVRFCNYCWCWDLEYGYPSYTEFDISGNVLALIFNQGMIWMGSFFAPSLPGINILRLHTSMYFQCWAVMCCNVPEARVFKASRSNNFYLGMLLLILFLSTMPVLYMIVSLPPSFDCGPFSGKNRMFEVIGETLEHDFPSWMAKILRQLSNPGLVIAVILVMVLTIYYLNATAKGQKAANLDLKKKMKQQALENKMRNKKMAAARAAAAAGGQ

Tests used:
Experiment in all cases: co-IP
[1] = molecular target: TMC1 with CR1 deleted (mouse) (UniProt Q8R4P5)
[2] = molecular target: TMC1 with CR2 deleted (mouse) (UniProt Q8R4P5)
[3] = molecular target: TMC1 with CR3 deleted (mouse) (UniProt Q8R4P5)

binding [1]: binds | binding [2]: binds | binding [3]: binds
B1: CIB2 expressed in HEK 293 cells (protein, UniProt Q9Z309 1-187)
chain: MGNKQTIFTEEQLDNYQDCTFFNKKDILKLHARFYELAPNLVPMDYRKSPIVHVPMSLIIQMPELRENPFKERIVEAFSEDGEGNLTFNDFVDMFSVLCESAPRELKANYAFKIYDFNTDNFICKEDLEMTLARLTKSELEEDEVVLVCDKVIEEADLDGDGKLGFADFEDMIAKAPDFLSTFHIRI
